Test results from patent US4460605A, “2-[2'-Hydroxy-3'-(1,1-dimethylpropylamino)-propoxy ]-β-phenylpropiophenone, its physiologically acceptable acid addition salts, and pharmaceutical compositions” (Helopharm W. Petrik & Co., priority 1981, dated 1984).
Where a name gives a salt, the structure may show the parent alone.

Assay: LD50 acute toxicity in dog
Conditions: in vivo, iv; dog i.v.

CCCNCC(O)COc1ccccc1C(=O)CCc1ccccc1 (stereo not shown) [propafenone-HCl]
LD50: 15 mg/kg
